{"sequences": {"note": "Protein sequences, listed by entry. Tags and fused reporters are not part of them. Residues count along the entry.", "UniProt P21589, 27-549 limits assumed": "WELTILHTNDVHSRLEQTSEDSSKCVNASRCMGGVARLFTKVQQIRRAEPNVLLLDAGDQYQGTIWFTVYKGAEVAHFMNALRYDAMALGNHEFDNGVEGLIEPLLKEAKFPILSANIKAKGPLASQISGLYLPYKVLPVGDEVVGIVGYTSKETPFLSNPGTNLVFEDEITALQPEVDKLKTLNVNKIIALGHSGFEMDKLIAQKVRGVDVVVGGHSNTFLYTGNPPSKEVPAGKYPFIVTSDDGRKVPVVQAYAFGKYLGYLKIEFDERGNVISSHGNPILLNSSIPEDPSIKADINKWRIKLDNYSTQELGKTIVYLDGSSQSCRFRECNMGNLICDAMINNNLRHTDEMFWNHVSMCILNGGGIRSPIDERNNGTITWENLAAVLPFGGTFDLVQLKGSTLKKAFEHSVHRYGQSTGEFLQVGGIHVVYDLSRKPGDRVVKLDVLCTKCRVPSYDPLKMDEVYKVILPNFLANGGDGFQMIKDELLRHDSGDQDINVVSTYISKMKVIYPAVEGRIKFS"}, "source": "patent US20220160747A1", "about": "“PHARMACEUTICAL COMPOSITION COMPRISING NOVEL AZOLOPYRIMIDINE HETEROCYCLIC COMPOUND AS ACTIVE INGREDIENT” (KOREA RESEARCH INSTITUTE OF CHEMICAL TECHNOLOGY, priority 2019, published 2022)", "biological_target": "human CD73 recombinant protein (Homo sapiens, UniProt P21589)", "test": "Enzyme assay, CD73 (Malachite green kit)", "settings": "read-out: Enzyme Activity (IC50, μM) CD73, AMP added, incubation 30 minutes", "protocol": "Referring to a method described in a reference document [Front Pharmacol. 2018 Mar. 1; 9:153], an enzyme assay was performed. Each of human CD73 and CD39 recombinant proteins was produced and then purified and isolated, and used in an enzyme assay. A buffer was basically 25 mM Tris, 5 mM MgCl2, pH 7.5 as an assay buffer, and for assay, human CD73 and CD39 recombinant protein were diluted at an appropriate concentration, respectively, in the assay buffer, adenosine monophosphate (AMP) (Sigma, Catalog #A1752) at an appropriate concentration was added, and then incubation was performed for 30 minutes. At the time, the azolopyrimidine heterocyclic compounds of the present invention were treated for each concentration and incubated together, thereby measuring a degree of inhibiting activity of CD73 or CD39.", "note": "The structures given here were assigned with low confidence; some may be wrong.", "data": [{"smiles": "CN(Cc1cccc(F)c1)c1ncnc2c1ncn2[C@@H]1O[C@H](COC(=S)Oc2ccccc2)[C@H]2OC(C)(C)O[C@H]21", "values": [{"measurement": "IC50", "result": "1.1 to 5", "unit": "µM"}]}]}
